{"source": "PubChem BioAssay AID1259254 (NCATS, 2017)", "test": "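Genome-wide screen for genes that prevent DNA re-replication in cancer cells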 (primary screen)", "cell system": "human HCT116 colorectal cancer cells", "reagents": "single siRNA against human genes", "duration": "3 days", "read-out": "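Imaged Hoechst DNA stain sorts each cell into a cycle phase by DNA amount; per plate, G2 fraction set to 0% for non-targeting and 100% for GMNN siRNA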", "reading the numbers": "G2 robust z-score: higher = more G2 cells, more excess DNA replication", "call rule": "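Active siRNAs have a G2 robust z of 5 or more median absolute deviations over the median, which in these data means about 38% or higher of GMNN control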", "note": "The whole screen tested about 59,000 reagents; below is a part drawn at random. Over the whole deposit, about 1,550 (2.6%) got an active call. 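G2 share is only a proxy for re-replication; each gene was hit by three separate siRNAs, and active genes were retested.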 A number with no mark means an inactive call. The numbers tell different reagents against one gene apart. Further read-outs or replicates are left out here. Reagent sequences are not shown. The record does not give: the amount of reagent."}
{"gene knocked down": "SOX18", "reagent": 1, "G2 robust z-score": 0.231}
{"gene knocked down": "SOX18", "reagent": 2, "G2 robust z-score": 0.185}
{"gene knocked down": "SOX18", "reagent": 3, "G2 robust z-score": 0.695}
{"gene knocked down": "LCOR", "reagent": 1, "G2 robust z-score": -0.801}
{"gene knocked down": "LCOR", "reagent": 2, "G2 robust z-score": -0.153}
{"gene knocked down": "LCOR", "reagent": 3, "G2 robust z-score": 0.672}
{"gene knocked down": "LCOR", "reagent": 4, "G2 robust z-score": 2.18}
{"gene knocked down": "LCOR", "reagent": 5, "G2 robust z-score": 1.39}
{"gene knocked down": "LCOR", "reagent": 6, "G2 robust z-score": -0.333}
{"gene knocked down": "RPL9P11", "reagent": 1, "G2 robust z-score": -0.254}
{"gene knocked down": "RPL9P11", "reagent": 2, "G2 robust z-score": -0.137}
{"gene knocked down": "RPL9P11", "reagent": 3, "G2 robust z-score": 0.644}
{"gene knocked down": "PIGX", "reagent": 1, "G2 robust z-score": -0.536}
{"gene knocked down": "PIGX", "reagent": 2, "G2 robust z-score": -0.123}
{"gene knocked down": "PIGX", "reagent": 3, "G2 robust z-score": 1.4}
{"gene knocked down": "SULT4A1", "reagent": 1, "G2 robust z-score": -0.723}
{"gene knocked down": "SULT4A1", "reagent": 2, "G2 robust z-score": -1.04}
{"gene knocked down": "SULT4A1", "reagent": 3, "G2 robust z-score": 1.04}
{"gene knocked down": "IFNA1", "reagent": 1, "G2 robust z-score": -0.803}
{"gene knocked down": "IFNA1", "reagent": 2, "G2 robust z-score": -0.0103}
{"gene knocked down": "IFNA1", "reagent": 3, "G2 robust z-score": 0.843}
{"gene knocked down": "NGFR", "reagent": 1, "G2 robust z-score": 1.06}
{"gene knocked down": "NGFR", "reagent": 2, "G2 robust z-score": "5.1 (active)"}
{"gene knocked down": "NGFR", "reagent": 3, "G2 robust z-score": -0.882}
{"gene knocked down": "MELTF", "reagent": 1, "G2 robust z-score": -1.06}
{"gene knocked down": "MELTF", "reagent": 2, "G2 robust z-score": -0.79}
{"gene knocked down": "MELTF", "reagent": 3, "G2 robust z-score": -1.18}
{"gene knocked down": "LZTS3", "reagent": 1, "G2 robust z-score": 0.897}
{"gene knocked down": "LZTS3", "reagent": 2, "G2 robust z-score": -0.0667}
{"gene knocked down": "LZTS3", "reagent": 3, "G2 robust z-score": 0.203}
